Results are given in words; binding and its absence hold for the method and conditions named. In cells and extracts the contact can be indirect. For part of these data: A result given as binding can be weak or reduced; the word gives no strength. Tags and fused reporters may be left off the sequences shown.
Tests used:
[1] = target: T1, HA-SpvB (S. Typhimurium strain SL1344) (UniProt P21454); assay: co-IP; FLAG-tagged AP-1 subunits or CHC cotransfected with or without HA-SpvB in 293T cells; lysates precipitated with beads coated with HA antibody; immunoblot
T1 sequence: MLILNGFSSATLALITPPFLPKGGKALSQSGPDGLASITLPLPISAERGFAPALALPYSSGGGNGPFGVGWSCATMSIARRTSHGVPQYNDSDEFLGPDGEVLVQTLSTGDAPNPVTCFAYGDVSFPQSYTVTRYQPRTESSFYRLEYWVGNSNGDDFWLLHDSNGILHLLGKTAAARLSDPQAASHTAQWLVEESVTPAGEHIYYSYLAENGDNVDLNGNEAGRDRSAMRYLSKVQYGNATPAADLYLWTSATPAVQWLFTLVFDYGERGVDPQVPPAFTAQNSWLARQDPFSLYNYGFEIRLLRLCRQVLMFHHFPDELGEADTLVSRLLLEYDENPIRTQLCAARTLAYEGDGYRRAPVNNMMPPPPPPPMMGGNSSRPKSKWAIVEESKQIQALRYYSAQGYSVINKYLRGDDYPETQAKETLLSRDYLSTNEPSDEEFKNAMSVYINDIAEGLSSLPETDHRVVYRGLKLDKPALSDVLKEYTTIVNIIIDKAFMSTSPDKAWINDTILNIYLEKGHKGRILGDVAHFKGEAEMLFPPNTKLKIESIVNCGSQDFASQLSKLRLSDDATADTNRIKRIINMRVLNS

[2] = target: T2, FLAG-tagged SopD2 (S. Typhimurium strain SL1344) (UniProt Q8ZQC8); assay: co-IP; 293T cells transfected with FLAG-tagged SpvB, truncation mutants or SopD2; anti-FLAG immunoprecipitates probed with antibodies against endogenous CHC and AP-1γ
T2 sequence: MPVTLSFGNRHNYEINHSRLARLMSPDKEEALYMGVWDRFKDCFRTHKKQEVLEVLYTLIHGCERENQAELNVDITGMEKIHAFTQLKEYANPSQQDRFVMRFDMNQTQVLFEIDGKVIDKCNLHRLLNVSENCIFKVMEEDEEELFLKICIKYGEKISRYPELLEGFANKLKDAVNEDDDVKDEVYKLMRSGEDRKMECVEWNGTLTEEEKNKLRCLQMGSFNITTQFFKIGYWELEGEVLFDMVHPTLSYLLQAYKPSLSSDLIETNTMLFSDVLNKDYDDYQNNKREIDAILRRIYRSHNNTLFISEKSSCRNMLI

[3] = target: FLAG-tagged AP-1σ (human); assay: co-IP; GFP-SpvB or GFP-tagged truncation mutants cotransfected with FLAG-tagged AP-1 subunits or CHC in 293T cells; lysates precipitated with beads coated with FLAG antibody; immunoblot
[4] = target: FLAG-tagged AP-1γ (human); assay: as above
[5] = target: FLAG-tagged AP-1μ (human); assay: as above
[6] = target: FLAG-tagged AP-1β (human); assay: as above

Question: How did the binding [1] turn out when FLAG-tagged AP-1γ (human) was run?
Answer: binds

Question: With FLAG-tagged AP-1μ (human) as the molecule, how does the binding [1] read?
Answer: binds

Question: For FLAG-tagged AP-1β (human), which binding [1] is on record?
Answer: binds

Question: How did the binding [1] turn out when FLAG-tagged AP-1σ (human) was run?
Answer: binds

Question: Which binding [2] does the source give for “AP-1γ (endogenous) (human (endogenous in HEK293T))” here?
Answer: no binding

B1: GFP-SpvB (protein, UniProt P21454 1-591)
chain: MLILNGFSSATLALITPPFLPKGGKALSQSGPDGLASITLPLPISAERGFAPALALPYSSGGGNGPFGVGWSCATMSIARRTSHGVPQYNDSDEFLGPDGEVLVQTLSTGDAPNPVTCFAYGDVSFPQSYTVTRYQPRTESSFYRLEYWVGNSNGDDFWLLHDSNGILHLLGKTAAARLSDPQAASHTAQWLVEESVTPAGEHIYYSYLAENGDNVDLNGNEAGRDRSAMRYLSKVQYGNATPAADLYLWTSATPAVQWLFTLVFDYGERGVDPQVPPAFTAQNSWLARQDPFSLYNYGFEIRLLRLCRQVLMFHHFPDELGEADTLVSRLLLEYDENPIRTQLCAARTLAYEGDGYRRAPVNNMMPPPPPPPMMGGNSSRPKSKWAIVEESKQIQALRYYSAQGYSVINKYLRGDDYPETQAKETLLSRDYLSTNEPSDEEFKNAMSVYINDIAEGLSSLPETDHRVVYRGLKLDKPALSDVLKEYTTIVNIIIDKAFMSTSPDKAWINDTILNIYLEKGHKGRILGDVAHFKGEAEMLFPPNTKLKIESIVNCGSQDFASQLSKLRLSDDATADTNRIKRIINMRVLNS
Question: Which results are given for B1?
Answer: binding [3]: binds; binding [4]: binds; binding [5]: binds; binding [6]: binds
